# About 7,500 (2.1%) of roughly 360,000 compounds were called active. Inconclusive results, whose numbers are uncertain, are shown with a selection of clear calls. Calls come from the whole dose curve; as a rule, active = well fitted inhibition curve with a large enough effect; inconclusive = small, poorly fitted or top-dose-only effect, or effect the other way; inactive = flat fitted curve, though single readings scatter. Potencies beside an inconclusive call are fits to weak or partial responses and may not hold up.
# Assay: Nrf2 qHTS screen for inhibitors; note: nearly all actives have a fitted effect of over 60% in size
# Conditions: A549 ARE-Fluc reporter, luciferase luminescence, 18-24 h; activity change, negative = inhibition: at 46 µM (top of the series)
# How it was run: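 Two sequential reads on A549 ARE_Fluc cells exposed to compound for 18-24 h: a CellTiter-Fluor fluorescence read for viability, then a luciferase luminescence read for Nrf2/ARE activity.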
# % is set by controls: 0 for no effect and ±100 for the full control effect; potency is the fitted concentration of half-maximal effect.
SMILES,Potency,"activity change, negative = inhibition"
COC(=O)c1cc(-c2c(C)oc3cc(OC(C)C)ccc3c2=O)c(C)o1,"inconclusive: 29.1 µM [falling, single point]",
Cc1sc2nc(C)n(/N=C/c3ccccc3O)c(=O)c2c1C,"inconclusive: 7.31 µM [falling, partial curve]",
CSc1cccc(NC(=O)CSc2nc3ccccc3o2)c1,"inconclusive: 13 µM [activator, partial curve, poor fit]",
COc1ccccc1-c1cc(C(F)(F)F)nc(S(=O)(=O)CCCC(=O)N2CCCCC2C)n1 (stereo unspecified),"inconclusive: 16.4 µM [falling, single point]",
Cc1cc(C)n2nc(SCC(=O)c3cc(C)n(-c4cc(C)on4)c3C)nc2n1,"inconclusive: 10.3 µM [falling, partial curve, poor fit]",
COc1ccccc1CCNC(=O)c1ccc2c(c1)c(C)c(C)n2C,"inconclusive: 14.6 µM [falling, partial curve, poor fit]",
CCc1ccc(NCc2cc3cc4c(cc3n(CC(=O)Nc3ccc(Cl)cc3)c2=O)OCO4)cc1,"inconclusive: 29.1 µM [activator, single point]",
S=C1NC2(CCCC2)N=C1c1ccccc1,"inconclusive: 32.6 µM [falling, partial curve, poor fit]",
Cc1ccc(NC(=O)C(C)c2ccc([N+](=O)[O-])cc2)cc1Cl (stereo unspecified),,inactive: -14.8%
COc1cc(NC(=S)NC(=O)c2ccc(C(C)(C)C)cc2)ccc1NC(=O)c1cccs1,"inconclusive: 0.731 µM [activator, full curve, poor fit]",
CCOc1ccc(NC(=O)c2sc3nc(C)nc(N4CCOCC4)c3c2C)cc1,"inconclusive: 14.6 µM [falling, partial curve, poor fit]",
Oc1cccc(Oc2ncc(C(F)(F)F)cc2Cl)c1,"inconclusive: 0.146 µM [falling, full curve, poor fit]",
COC(=O)c1ccc(NC(=O)CC2C(=O)N(c3ccc(Cl)cc3)C(=O)N2Cc2cccs2)cc1 (stereo unspecified),"inconclusive: 14.6 µM [falling, partial curve, poor fit]",
CCOc1ncccc1C(=O)NCc1cccc(OC)c1,,inactive: -4.49%
CCC1Sc2ccc(S(=O)(=O)CCC(=O)NC3CCCCCC3)cc2NC1=O (stereo unspecified),"inconclusive: 20.6 µM [falling, single point]",
Cc1cc2c(cc1C)N[C@]1(C[C@H]3CCCC(=O)N4CC[C@@H](C1)[C@@H]34)C(=NC(C)(C)CC(C)(C)C)N2,,inactive: 2.44%
COc1ccc(C(=O)Oc2ccc(/C=N/NC(=O)Cc3ccc([N+](=O)[O-])cc3)cc2)cc1,"inconclusive: 16.4 µM [activator, partial curve, poor fit]",
Cc1cc(OCC(=O)Nc2ccc(CN3CCCCC3)cc2)ccc1Cl,"inconclusive: 23.1 µM [activator, partial curve, poor fit]",
Cc1ncc(CSCC(=O)Nc2cc(C(F)(F)F)ccc2Cl)c(CO)c1O,"inconclusive: 23.1 µM [falling, single point]",
O=C(CC1N=C2c3ccccc3N=C(SCC(=O)Nc3cccc(C(F)(F)F)c3)N2C1=O)NCc1cccs1 (stereo unspecified),"inconclusive: 25.9 µM [falling, single point]",
COc1ccc(CCNC(=O)c2nn(-c3ccc(C)cc3)c(=O)c3c2c2ccccc2n3C)cc1OC,,inactive: 1.54%

# 4 compounds already listed, arranged by SMILES length, high to low:
SMILES,Potency,"activity change, negative = inhibition"
O=C(CC1N=C2c3ccccc3N=C(SCC(=O)Nc3cccc(C(F)(F)F)c3)N2C1=O)NCc1cccs1 (stereo unspecified),"inconclusive: 25.9 µM [falling, single point]",
COc1ccccc1-c1cc(C(F)(F)F)nc(S(=O)(=O)CCCC(=O)N2CCCCC2C)n1 (stereo unspecified),"inconclusive: 16.4 µM [falling, single point]",
Cc1ncc(CSCC(=O)Nc2cc(C(F)(F)F)ccc2Cl)c(CO)c1O,"inconclusive: 23.1 µM [falling, single point]",
S=C1NC2(CCCC2)N=C1c1ccccc1,"inconclusive: 32.6 µM [falling, partial curve, poor fit]",

# (more compounds)

SMILES,Potency,"activity change, negative = inhibition"
CC(C)(C)CC(=O)N1CCN(c2ccc(S(=O)(=O)N3CCOCC3)cc2[N+](=O)[O-])CC1,"inconclusive: 29.1 µM [falling, single point]",
COc1ccc(S(=O)(=O)N2CCOCC2)cc1NC(=O)c1cccc(-n2cccc2)c1,"inconclusive: 2.59 µM [activator, full curve, poor fit]",
O=C(Nc1cccc(Cl)c1)c1ccc2c(=O)n3c(nc2c1)CCCCC3,"inconclusive: 29.1 µM [falling, single point]",
O=C(c1ccc(Cl)c(S(=O)(=O)N2CCCCCC2)c1)N1CCCC(C(F)(F)F)C1 (stereo unspecified),"inconclusive: 8.2 µM [falling, partial curve, poor fit]",
CC(C)(C)c1ccc(C(=O)Nc2cccc(S(=O)(=O)NC3=NCCC3)c2)cc1,"inconclusive: 29.1 µM [falling, single point]",
CCc1ccc(CN(Cc2ccco2)C(=O)c2ccccc2Cl)cc1,"inconclusive: 29.1 µM [falling, single point]",
O=c1[nH]c(=O)n(Cc2ccccc2)c2c1C(C(F)(F)F)(C(F)(F)F)N=C(c1ccco1)N2,"inconclusive: 18.4 µM [falling, single point]",
CC1CCC(=O)N(CCSc2ccccc2)CC1 (stereo unspecified),"inconclusive: 1.64 µM [activator, partial curve, poor fit]",
COc1ccccc1NC(=O)CCCOc1cc(=O)n(C)c2ccccc12,"inconclusive: 10.3 µM [falling, partial curve, poor fit]",
COc1ccccc1-n1cnnc1SCC(=O)Nc1cc(C(C)(C)C)nn1-c1ccccc1,"inconclusive: 16.4 µM [falling, single point]",
Cc1ccc(O)c(NC(=S)NC(=O)/C=C/c2ccccc2)c1,,inactive: -1.34%
Oc1c(I)cc(I)c2cccnc12,"inconclusive: 16.4 µM [falling, partial curve]",
Clc1cccc(Cl)c1CSc1nnc(-c2ccncc2)s1,"inconclusive: 10.3 µM [falling, partial curve, poor fit]",
O=C(NCC(=O)N1CCN(C/C=C/c2ccccc2)CC1)c1ccc(Br)cc1,"inconclusive: 20.6 µM [falling, partial curve, poor fit]",
CCS(=O)(=O)Nc1cccc(-c2cc(-c3ccccc3)c3cc(C)ccc3n2)c1,"inconclusive: 29.1 µM [falling, single point]",
CCOC(=O)C1=C(C)C2C3C(=O)N(c4ccccc4C)C(=O)C3C1(C)C1C(=O)N(c3ccccc3C)C(=O)C21 (stereo unspecified),"inconclusive: 29.1 µM [activator, single point]",
O=C(Nc1ccc2[nH]c(=S)sc2c1)c1ccccc1,"inconclusive: 2.31 µM [activator, full curve]",
Cc1c(C(=O)N2CCN(c3ccccc3F)CC2)oc2c1C(=O)CC(C)(C)C2,"inconclusive: 29.1 µM [falling, single point]",
C=CCn1c(SCC(=O)NC2CCCCC2)nc2ccccc2c1=O,"inconclusive: 7.31 µM [falling, partial curve, poor fit]",
O=C(CSC1=NCCS1)N1CCN(c2ccc(Cl)cc2)CC1,"inconclusive: 10.3 µM [falling, partial curve, poor fit]",
CC(C)c1ccc(/C=N/NC(=O)c2cccc(Cl)c2)cc1,"inconclusive: 2.31 µM [activator, full curve]",

SMILES,Potency,"activity change, negative = inhibition"
Cc1csc(NC(=O)CSCC(=O)O)c1-c1nc2ccccc2s1,"inconclusive: 9.2 µM [falling, partial curve]",
C=CCn1c(=O)c(C(=O)Nc2ccccc2S(N)(=O)=O)c(O)c2ccccc21,"inconclusive: 5.17 µM [activator, full curve]",
COc1cc(NC(=O)c2cc3ccccc3o2)ccc1NC(=O)c1ccco1,"inconclusive: 6.51 µM [falling, partial curve, poor fit]",
O=C(CSc1ccc2ccccc2n1)c1ccc2c(c1)OCO2,"inconclusive: 16.4 µM [activator, single point]",
CCOC(=O)Nc1ccc(Oc2ccccc2)cc1,"inconclusive: 1.46 µM [activator, partial curve, poor fit]",
COc1cc(NC(=O)Cn2c(=O)n(Cc3ccccc3OC)c(=O)c3cccnc32)cc(OC)c1,,inactive: 11.9%
COc1ccc(C(=O)OCC(O)COC(=O)c2ccc(OC)cc2)cc1,"inconclusive: 25.9 µM [falling, single point]",
COc1cc(/C=N\NC(C)=O)ccc1OC/C=C/c1ccccc1,,inactive: 2.05%
Cc1cccc(N(C)S(=O)(=O)c2ccc(-c3cnc(C4CC4)o3)cc2)c1,"inconclusive: 0.517 µM [activator, full curve, poor fit]",
COc1ccc(OCC(=O)Nc2nccs2)cc1,"inconclusive: 0.411 µM [activator, full curve, poor fit]",
O=C(Cc1ccc(Cl)c(Cl)c1)Nc1ccccc1N1CCCC1,"inconclusive: 29.1 µM [falling, single point]",
O=C(NC(=S)Nc1ccccc1)c1cccs1,"inconclusive: 18.4 µM [activator, partial curve]",
CCC(=O)c1cc(F)c(N2CCN(S(=O)(=O)c3ccccc3)CC2)cc1C,"inconclusive: 18.4 µM [falling, partial curve]",
COC(=O)c1ccc2[nH]c3cccc(/C(=C/c4ccccc4)c4ccccc4)c3c2c1,"inconclusive: 23.1 µM [falling, single point]",
CC(=O)c1cccc(NC(=O)C2CCN(S(=O)(=O)c3ccc(F)cc3)CC2)c1,"inconclusive: 32.6 µM [falling, single point]",
COc1ccc(CCNC(=O)c2ccc(-c3ccc([N+](=O)[O-])cc3)o2)cc1OC,active: 25.9 µM,
Cc1ccc(NC(=O)CCNC(=O)c2ccccc2Cl)cc1S(=O)(=O)N1CCCCCC1,"inconclusive: 29.1 µM [falling, single point]",
Cc1ccc(Cl)cc1NS(=O)(=O)c1cc2c(cc1F)NC(=O)CC2,,inactive: -13.4%
Cc1ccc(Cn2nc(C)cc2C(=O)Nc2ccccc2Cl)cc1,"inconclusive: 14.6 µM [activator, partial curve]",

# From PubChem BioAssay AID504444 (National Center for Advancing Translational Sciences (NCATS), 2011)
